Laboratory results as given in the supplement of paper PMC10849652.
This is one part of the list.

Protein sequences, listed by entry. Tags and fused reporters are not part of them. Lines headed by an entry give the natural chain unless they say otherwise; changes in a name come on top.
UniProt Q9NRC1: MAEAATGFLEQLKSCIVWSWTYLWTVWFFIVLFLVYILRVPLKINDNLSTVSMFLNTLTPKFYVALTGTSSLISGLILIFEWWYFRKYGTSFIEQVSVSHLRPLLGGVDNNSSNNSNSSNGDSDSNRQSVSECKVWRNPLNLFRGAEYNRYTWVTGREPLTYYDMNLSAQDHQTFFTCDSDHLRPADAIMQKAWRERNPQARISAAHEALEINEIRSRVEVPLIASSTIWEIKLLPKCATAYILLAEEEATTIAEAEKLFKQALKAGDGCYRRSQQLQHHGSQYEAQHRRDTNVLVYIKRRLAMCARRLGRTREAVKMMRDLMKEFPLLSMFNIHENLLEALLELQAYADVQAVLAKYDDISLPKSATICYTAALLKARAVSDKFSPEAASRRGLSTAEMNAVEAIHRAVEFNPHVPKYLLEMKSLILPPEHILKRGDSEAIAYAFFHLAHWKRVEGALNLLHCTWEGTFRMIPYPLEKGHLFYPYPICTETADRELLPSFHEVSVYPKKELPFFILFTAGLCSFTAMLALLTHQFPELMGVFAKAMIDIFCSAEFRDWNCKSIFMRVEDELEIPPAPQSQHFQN
UniProt P35325: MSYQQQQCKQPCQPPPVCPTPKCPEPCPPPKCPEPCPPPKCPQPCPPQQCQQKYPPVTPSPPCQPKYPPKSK
UniProt Q96T58, whole entry, looked up: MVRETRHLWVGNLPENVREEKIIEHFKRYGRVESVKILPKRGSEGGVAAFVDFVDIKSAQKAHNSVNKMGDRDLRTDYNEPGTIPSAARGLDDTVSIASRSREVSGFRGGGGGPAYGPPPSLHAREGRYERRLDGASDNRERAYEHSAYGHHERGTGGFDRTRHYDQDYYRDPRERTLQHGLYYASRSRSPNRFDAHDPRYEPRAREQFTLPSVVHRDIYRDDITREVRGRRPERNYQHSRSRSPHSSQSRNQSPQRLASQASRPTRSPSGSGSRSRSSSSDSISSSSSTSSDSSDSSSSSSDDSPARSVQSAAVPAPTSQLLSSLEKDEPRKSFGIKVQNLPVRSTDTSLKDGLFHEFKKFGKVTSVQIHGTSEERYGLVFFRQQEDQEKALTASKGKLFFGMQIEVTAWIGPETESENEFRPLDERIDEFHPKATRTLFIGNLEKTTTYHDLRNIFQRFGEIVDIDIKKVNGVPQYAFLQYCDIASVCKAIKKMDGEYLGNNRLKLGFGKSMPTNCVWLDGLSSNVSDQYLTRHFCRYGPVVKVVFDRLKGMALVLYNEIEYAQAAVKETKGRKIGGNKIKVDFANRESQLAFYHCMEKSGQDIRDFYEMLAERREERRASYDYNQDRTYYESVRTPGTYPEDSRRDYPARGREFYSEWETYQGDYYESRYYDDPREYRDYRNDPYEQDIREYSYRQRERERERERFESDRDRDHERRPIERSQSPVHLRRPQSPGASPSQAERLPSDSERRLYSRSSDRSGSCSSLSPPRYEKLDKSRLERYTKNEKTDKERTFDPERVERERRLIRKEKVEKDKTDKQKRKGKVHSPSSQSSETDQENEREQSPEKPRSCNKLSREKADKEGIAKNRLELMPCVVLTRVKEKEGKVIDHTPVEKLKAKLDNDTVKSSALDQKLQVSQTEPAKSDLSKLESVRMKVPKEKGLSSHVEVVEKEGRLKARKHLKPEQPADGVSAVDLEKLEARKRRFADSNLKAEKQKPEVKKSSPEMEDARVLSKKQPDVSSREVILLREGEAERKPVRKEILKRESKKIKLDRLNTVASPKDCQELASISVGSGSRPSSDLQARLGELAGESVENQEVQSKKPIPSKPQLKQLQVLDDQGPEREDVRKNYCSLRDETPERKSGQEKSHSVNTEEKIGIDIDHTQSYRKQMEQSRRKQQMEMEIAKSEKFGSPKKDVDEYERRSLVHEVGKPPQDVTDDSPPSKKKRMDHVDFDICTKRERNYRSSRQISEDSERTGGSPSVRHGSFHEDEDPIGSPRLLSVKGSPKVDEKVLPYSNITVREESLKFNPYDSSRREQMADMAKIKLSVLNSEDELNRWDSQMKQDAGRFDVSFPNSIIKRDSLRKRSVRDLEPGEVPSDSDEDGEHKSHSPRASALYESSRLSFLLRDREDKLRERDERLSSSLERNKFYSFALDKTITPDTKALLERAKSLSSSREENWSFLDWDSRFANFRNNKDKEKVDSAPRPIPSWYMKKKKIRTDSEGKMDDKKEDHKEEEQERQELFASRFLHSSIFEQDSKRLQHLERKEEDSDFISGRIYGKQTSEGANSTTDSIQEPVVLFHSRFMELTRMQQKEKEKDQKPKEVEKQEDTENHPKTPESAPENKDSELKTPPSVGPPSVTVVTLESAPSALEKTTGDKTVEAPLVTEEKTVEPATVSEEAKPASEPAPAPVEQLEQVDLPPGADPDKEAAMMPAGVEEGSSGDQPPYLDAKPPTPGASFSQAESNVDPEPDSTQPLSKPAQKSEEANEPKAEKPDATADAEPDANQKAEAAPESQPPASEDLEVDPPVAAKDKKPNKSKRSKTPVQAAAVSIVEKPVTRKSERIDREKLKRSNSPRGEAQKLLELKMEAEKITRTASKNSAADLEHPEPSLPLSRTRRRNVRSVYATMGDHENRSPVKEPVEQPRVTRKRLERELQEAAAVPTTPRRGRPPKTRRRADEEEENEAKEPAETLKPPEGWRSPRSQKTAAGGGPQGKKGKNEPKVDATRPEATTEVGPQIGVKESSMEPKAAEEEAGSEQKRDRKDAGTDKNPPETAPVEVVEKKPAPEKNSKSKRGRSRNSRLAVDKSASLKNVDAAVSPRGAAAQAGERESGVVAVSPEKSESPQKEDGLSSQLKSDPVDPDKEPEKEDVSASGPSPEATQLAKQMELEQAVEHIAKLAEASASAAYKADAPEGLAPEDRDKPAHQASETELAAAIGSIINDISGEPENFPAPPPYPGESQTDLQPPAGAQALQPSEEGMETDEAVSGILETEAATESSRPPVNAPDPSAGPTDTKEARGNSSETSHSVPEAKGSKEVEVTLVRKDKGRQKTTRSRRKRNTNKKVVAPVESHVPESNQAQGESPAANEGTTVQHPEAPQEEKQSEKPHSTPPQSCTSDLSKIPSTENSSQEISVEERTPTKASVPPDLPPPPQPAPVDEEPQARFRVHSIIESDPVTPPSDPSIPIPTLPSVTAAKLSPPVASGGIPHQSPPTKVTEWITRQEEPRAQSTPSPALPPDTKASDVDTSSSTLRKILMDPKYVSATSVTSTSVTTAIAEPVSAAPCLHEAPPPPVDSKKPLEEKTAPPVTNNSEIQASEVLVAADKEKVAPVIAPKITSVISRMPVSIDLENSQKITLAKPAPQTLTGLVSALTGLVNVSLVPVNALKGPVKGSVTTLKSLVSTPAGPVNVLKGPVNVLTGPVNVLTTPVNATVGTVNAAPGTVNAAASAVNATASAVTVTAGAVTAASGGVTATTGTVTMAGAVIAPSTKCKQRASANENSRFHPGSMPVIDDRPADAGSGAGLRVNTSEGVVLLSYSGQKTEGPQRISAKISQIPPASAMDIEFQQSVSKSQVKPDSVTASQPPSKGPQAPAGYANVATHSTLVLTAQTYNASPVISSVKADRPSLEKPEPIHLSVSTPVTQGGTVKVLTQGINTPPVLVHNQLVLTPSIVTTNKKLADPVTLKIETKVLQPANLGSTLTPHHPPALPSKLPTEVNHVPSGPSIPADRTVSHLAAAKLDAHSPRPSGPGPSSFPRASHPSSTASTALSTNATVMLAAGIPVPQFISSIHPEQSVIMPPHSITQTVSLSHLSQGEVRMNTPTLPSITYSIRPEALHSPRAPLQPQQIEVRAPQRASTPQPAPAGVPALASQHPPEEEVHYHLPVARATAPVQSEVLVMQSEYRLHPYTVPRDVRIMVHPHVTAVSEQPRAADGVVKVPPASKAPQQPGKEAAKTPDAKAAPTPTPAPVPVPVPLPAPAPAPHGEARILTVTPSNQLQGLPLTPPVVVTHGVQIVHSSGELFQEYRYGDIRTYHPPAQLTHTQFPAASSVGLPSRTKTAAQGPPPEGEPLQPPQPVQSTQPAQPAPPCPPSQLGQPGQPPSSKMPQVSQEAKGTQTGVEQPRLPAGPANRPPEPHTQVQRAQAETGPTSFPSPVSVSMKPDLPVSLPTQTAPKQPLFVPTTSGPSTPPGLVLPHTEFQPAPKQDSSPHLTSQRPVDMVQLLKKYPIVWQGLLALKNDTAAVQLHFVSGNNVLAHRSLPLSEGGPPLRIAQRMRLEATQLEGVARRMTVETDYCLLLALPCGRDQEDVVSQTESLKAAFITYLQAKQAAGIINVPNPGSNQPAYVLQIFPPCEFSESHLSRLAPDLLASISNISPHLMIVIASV
UniProt Q9HD15: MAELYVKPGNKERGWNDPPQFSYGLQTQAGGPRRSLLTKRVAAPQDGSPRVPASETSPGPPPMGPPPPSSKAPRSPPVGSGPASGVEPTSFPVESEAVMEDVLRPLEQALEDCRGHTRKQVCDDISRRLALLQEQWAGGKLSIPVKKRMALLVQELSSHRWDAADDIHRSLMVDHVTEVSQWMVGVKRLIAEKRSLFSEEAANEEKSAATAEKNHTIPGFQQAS
UniProt Q9BWW4: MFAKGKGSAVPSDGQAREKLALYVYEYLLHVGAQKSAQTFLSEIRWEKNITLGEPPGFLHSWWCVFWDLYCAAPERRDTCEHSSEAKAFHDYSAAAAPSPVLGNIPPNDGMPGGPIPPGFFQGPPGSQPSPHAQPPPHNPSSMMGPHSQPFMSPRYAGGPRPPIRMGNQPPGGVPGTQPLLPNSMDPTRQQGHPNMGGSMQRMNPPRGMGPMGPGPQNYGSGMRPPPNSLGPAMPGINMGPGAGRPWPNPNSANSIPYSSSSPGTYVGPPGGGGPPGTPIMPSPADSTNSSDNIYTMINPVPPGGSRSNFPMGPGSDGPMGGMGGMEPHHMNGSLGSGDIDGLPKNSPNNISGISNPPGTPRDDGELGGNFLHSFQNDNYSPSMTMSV
UniProt Q8N9Q2: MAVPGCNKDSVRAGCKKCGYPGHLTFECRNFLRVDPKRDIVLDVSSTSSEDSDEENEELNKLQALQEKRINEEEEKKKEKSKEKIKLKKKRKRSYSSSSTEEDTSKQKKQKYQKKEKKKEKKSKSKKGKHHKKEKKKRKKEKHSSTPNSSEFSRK
UniProt Q8NBT2: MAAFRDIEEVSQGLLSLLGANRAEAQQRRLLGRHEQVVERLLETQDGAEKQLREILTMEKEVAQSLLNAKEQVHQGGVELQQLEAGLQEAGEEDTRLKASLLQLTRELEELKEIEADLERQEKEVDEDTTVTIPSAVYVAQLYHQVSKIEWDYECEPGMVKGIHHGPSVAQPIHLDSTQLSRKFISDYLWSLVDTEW
UniProt Q9P246, whole entry, looked up: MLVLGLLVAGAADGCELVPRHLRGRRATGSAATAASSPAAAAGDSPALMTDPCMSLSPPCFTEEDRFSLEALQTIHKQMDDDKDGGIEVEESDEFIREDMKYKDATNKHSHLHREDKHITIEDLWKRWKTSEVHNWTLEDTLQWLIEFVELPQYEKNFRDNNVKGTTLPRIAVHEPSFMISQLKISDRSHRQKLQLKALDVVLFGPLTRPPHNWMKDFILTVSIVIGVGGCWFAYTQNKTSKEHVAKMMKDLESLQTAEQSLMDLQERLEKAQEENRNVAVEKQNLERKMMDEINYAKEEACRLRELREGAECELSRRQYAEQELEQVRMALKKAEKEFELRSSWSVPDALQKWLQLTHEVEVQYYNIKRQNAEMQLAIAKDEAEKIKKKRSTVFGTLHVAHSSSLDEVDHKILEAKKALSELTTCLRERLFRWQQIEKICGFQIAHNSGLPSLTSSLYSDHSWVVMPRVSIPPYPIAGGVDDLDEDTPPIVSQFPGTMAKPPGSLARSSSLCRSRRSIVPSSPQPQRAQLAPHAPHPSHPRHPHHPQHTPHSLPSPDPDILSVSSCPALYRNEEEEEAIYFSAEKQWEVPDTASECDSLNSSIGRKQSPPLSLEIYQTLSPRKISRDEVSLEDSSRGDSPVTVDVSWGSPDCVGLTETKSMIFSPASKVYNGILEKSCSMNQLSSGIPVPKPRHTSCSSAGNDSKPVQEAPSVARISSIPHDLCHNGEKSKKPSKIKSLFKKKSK
UniProt Q04837: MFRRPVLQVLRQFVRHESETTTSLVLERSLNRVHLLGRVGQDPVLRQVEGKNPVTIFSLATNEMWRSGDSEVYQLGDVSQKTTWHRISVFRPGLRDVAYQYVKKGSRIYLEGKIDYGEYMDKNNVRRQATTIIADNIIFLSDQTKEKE
UniProt Q9NYA1, whole entry, looked up: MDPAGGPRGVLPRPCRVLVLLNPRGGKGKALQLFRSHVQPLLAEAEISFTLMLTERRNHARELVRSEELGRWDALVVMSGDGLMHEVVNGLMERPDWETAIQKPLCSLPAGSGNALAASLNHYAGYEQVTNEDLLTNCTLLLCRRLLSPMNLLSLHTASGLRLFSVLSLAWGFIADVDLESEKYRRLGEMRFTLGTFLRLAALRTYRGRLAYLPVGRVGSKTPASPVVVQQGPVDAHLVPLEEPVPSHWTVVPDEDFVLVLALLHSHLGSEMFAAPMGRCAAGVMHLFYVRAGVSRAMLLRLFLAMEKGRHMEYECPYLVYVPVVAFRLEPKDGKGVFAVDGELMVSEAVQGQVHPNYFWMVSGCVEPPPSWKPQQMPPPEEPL

Each target was assayed with c1cn2cc(-c3ccc4cn[nH]c4c3)nc(Nc3ccc(N4CCOCC4)cc3)c2n1 [entospletinib] (assay: log2 fold change, soluble protein after heating vs DMSO (PISA); higher = thermal stabilisation; K562 cells, 10 uM, 30 min; active = over 0.2 and 3.5 SD of the protein, either way, in both replicates (recomputed)).
Outline: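 Aliquots of K562 cells (2×10^6 cells/mL) treated with 10 μM compound for 30 min were heated for 3 min over 48°C-58°C. After pooling and extraction in PBS with 0.5% NP-40 at 4°C, soluble protein from a 21,000xg, 90 min spin was quantified by TMTpro 16plex LC-MS/MS with channel sums equalised. Thermal stability is expressed against control samples, from duplicates, as a log2 fold change.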

log2 fold change, inactive:
ST7 (UniProt Q9NRC1) -0.007
SPRR2B (UniProt P35325) 0.012
SPEN (UniProt Q96T58) -0.036
SPTAN1 isoform 2 (UniProt Q13813) 0.049
SRA1 (UniProt Q9HD15) 0.029
SSBP3 (UniProt Q9BWW4) 0.045
SREK1IP1 (UniProt Q8N9Q2) -0.035
STIP1 isoform 2 (UniProt P31948) -0.014
SPC24 (UniProt Q8NBT2) -0.018
STIM2 isoform 2 (UniProt Q9P246) 0.061
SSBP1 (UniProt Q04837) 0.031
SPHK1 isoform 2 (UniProt Q9NYA1) -0.178
SRSF5 (UniProt Q13243) 0.12
